Library screening results

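Viability assay of Plasmodium falciparum sporozoites; the read-out is not stated. The concentration is filed as 10 mM, unlikely as a test dose, so the dose is not known. Direction is inferred from retests: higher values go with lower viability. Strong results were mostly tested again. About 34,000 compounds were tested under these conditions; 0.84% (about 280) showed 50% or more at least once.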

Each number is a percent effect as filed. The record does not define 0% and 100%; most values in the screen are far below 50% and negative numbers occur (in some assays of this library far below -100). The compounds are a random part of those screened. Two or more numbers in one place are separate tests of the same structure; such repeats can differ widely.

O=C(O)C(F)(F)F.O=C1CCCN1Cc1ncn2c1CN(C(=O)N1CCCC1)CCC2 gave 6.228%.
CCNc1cc2c(nn1)CCN(C(=O)Cc1c(C)noc1C)C2 gave -6.764%.
CC(C)c1cc(Br)ccc1NC(=O)NC(C)(CO)CO gave -14.39%.
CC(C)C(=O)N1CCN(CCOc2cccc(C#N)c2)CC1 gave 7.23%.
O=C(O)C(F)(F)F.[H][C@]12C[C@@H](CN(C)C)N(C(C)=O)[C@@]1([H])CCN(C(=O)Cc1cccs1)C2 gave 7.762%.
CCc1csc(C2CCCN(C(=O)CCn3cc(C)cn3)C2)n1 (configuration not stated) gave -10.33%.
Cc1nc2c(c(=O)[nH]1)CN(Cc1ccc3c(c1)CCCN3C)CC2 gave 3.741%.
CCOc1ccnc(N[C@@H](Cc2ccccc2)C(N)=O)n1 gave 0.8772%.
FC(F)(F)COc1cccc(-c2nc3c([nH]2)CCNC3)c1 gave -17.2%.
CCCn1[nH]cc/c1=N\C(=O)CN1CCCC1c1c(C)nn(C)c1C (configuration not stated) gave -2.72%.
O=C(NCc1cccs1)C1CN(C(=O)c2cccs2)CC12CCOCC2 (configuration not stated) gave 4.87%.
Cc1nc(CN2CCCC(N(C)CCOCC(F)(F)F)C2)no1 (configuration not stated) gave 7.074%.
CN(Cc1cnn(C)c1)C(=O)C1CCCN1Cc1ccccn1 (configuration not stated) gave 6.654%.
Cc1cnn(C2CCCN(C(=O)c3ccc(NC4CC4)nc3)C2)c1 (configuration not stated) gave 4.359%.
COc1c(C2CCCN2C(=O)c2c[nH]c3ncccc23)c(C)nn1C (configuration not stated) gave 0%.
CC(C)c1nnc(CN2CCN(C(C)c3nc(C4CC4)no3)CC2)o1 (configuration not stated) gave 4.794%.
CNC(=O)c1cnc(/C=C/c2cc(OC)c3c(c2)OCCO3)s1 gave -3.403%.
O=C(NCCC1=CCCCC1)Nc1cc(C(F)(F)F)c[nH]c1=O gave -9.92%.
[H][C@]12CC[C@]([H])(CN(Cc3cscn3)C1)N(C(=O)Nc1ccc(C)cc1)C2 gave 0.104%.
Cc1sc2nc(CCN)nc(N(CCN(C)C)CC3CCCO3)c2c1C (configuration not stated) gave 0.3713%.
CN(Cc1ccc(C#N)cc1)c1ncc(C(N)=O)cc1Cl gave -12.65%.
[H][C@@]12CC(=O)N(Cc3csc(C)n3)[C@@]1([H])CCN2C(=O)C1CCOCC1 gave -14.5%.
CC(C)(C)c1ncc(C(=O)NC(C(N)=O)c2ccccc2)s1 (configuration not stated) gave 8.667%.
CCOCc1cncc2c1CCN(C(=O)c1cscn1)C2.O=C(O)C(F)(F)F gave 8.945%.
O=C(NCc1cc[nH]n1)NCC(O)c1ccc(F)cc1F (configuration not stated) gave -24.75%.
COc1cnc(CSc2nnc(C)s2)cc1OCC(=O)NC(C)(C)C gave 4.995%.
O=C(O)C(F)(F)F.O=C(O)C(F)(F)F.[H][C@]12CCN(Cc3nccs3)[C@@]1([H])CC[C@H](COCc1cccnc1)O2 gave -6.337%.
Cc1nc(COCC2CN(C(=O)N(C)C)Cc3nccn3C2)cs1.O=C(O)C(F)(F)F (configuration not stated) gave -7.279%.
O=C(O)C(F)(F)F.[H][C@@]12CCN(C3CCCC3)C[C@]1(C(=O)NCc1cnc(C)cn1)CCO2 gave 13.53%.
Cc1ccc(C(=O)Nc2ccc(S(=O)(=O)/N=C3\CCCN3C)cc2)s1 gave 8.845%.
Fc1cnc(N2CCCn3cnc(COc4cccnc4)c3C2)nc1.O=C(O)C(F)(F)F gave -5.893%.
Cc1nc(N2CCN(C)CC2)ncc1C(=O)N1CCCCCC1 gave 5.461%.
Cn1c(C2CC2)nc2c1CCN(CC(=O)Nc1nccs1)C2 gave -11.47% & -18.02% & 11.36%.
CCC(C)S(=O)(=O)N(Cc1ccco1)Cc1ccccc1O (configuration not stated) gave 14.39%.
CCCN(c1ccccc1C(=O)O)S(=O)(=O)c1cccc2cccnc12 gave -12.62%.
OCCn1nccc1C1CCN(CCOc2ccccc2F)CC1 gave -2.244%.
Cc1ccc(OCCn2cnc3oc(C)c(C(=O)O)c3c2=O)cc1 gave 7.872%.
O=C(O)C(F)(F)F.[H][C@@]12COC[C@]1(COc1cccnc1)CN(C(=O)COC1CCCC1)C2 gave 3.809%.
Cc1cnn(CC2CCCN2Cc2nc(N)c3ccccc3n2)c1 (configuration not stated) gave 22.63% & 18.94% & 34.15%.
CN(Cc1cnc(N)nc1)C(=O)c1coc(COc2ccccc2)n1 gave -2.847%.
CN(C)C(=O)C1CCC2(CCNCC2)C1.O=C(O)C(F)(F)F (configuration not stated) gave -3.251%.
[H][C@@]12C[C@H](c3nc(C)no3)CN(S(=O)(=O)C3CC3)[C@]1([H])CCO2 gave -0.2806%.
Cn1ccnc1CN1CCCN(C(=O)c2ccc3c(c2)OCO3)CC1 gave -5.628%.
CC(C)Oc1ccc2c(NC(=O)CNC(N)=O)nn(CC(F)(F)F)c2c1 gave -15.12% & -15.97%.
O=C(Nc1ccccc1)C1=NOC2(CCCN(C(=O)N3CCCC3)C2)C1 (configuration not stated) gave 8.86%.
Cn1cc(CN2CCOCC3(C2)CN(c2ccccc2)C(=O)CO3)cn1.O=C(O)C(F)(F)F (configuration not stated) gave -5.034%.
CCc1nccc(CN2CCCC(CNC(=O)c3ccccn3)C2)n1 (configuration not stated) gave -6.754%.
CNC(=O)c1ccc2c(c1)C1(CCN(CC3CC3)CC1)C(=O)N2.O=C(O)C(F)(F)F gave -4.649%.

3 of the entries, repeated:

* Cc1ccc(C(=O)Nc2ccc(S(=O)(=O)/N=C3\CCCN3C)cc2)s1 | 8.845%
* Fc1cnc(N2CCCn3cnc(COc4cccnc4)c3C2)nc1.O=C(O)C(F)(F)F | -5.893%
* [H][C@]12CC[C@]([H])(CN(Cc3cscn3)C1)N(C(=O)Nc1ccc(C)cc1)C2 | 0.104%

From ChEMBL document CHEMBL3988442, “University of Dundee, Small-Polar-MMV Screening Library” (2021).